The text below walks through data of article doi:10.1101/2023.07.24.550339.

The target in assay [1] is LexA-Rab35Q67L (human) (UniProt Q15286). As to the kind of experiment: two-hybrid.
In assay [2] the target is LexA-Rab35S22N (human) (UniProt Q15286). The assay is described as follows: two-hybrid.
The target in assay [3] is LexA-Rab35WT (human) (UniProt Q15286). The assay is described as follows: two-hybrid.
In assay [4] the target is Rac1BD-Rab35BD (MiniBAR70-553), recombinant (human) (UniProt O15063). As to the kind of experiment: SEC. Background: Size exclusion chromatography separates by hydrodynamic size, large species first.
Assay [5] deals with Rac1BD-Rab35BDA461R (MiniBAR70-553 A461R), recombinant (human) (UniProt O15063). As to the kind of experiment: SEC.
Assay [6] has as its target Rac1BDA140V-Rab35BD (MiniBAR70-553 A140V), recombinant (human) (UniProt O15063). The assay is described as follows: SEC.
For assay [7], the target named is Rab35BD (MiniBAR225-553), recombinant (human) (UniProt O15063). As to the kind of experiment: SEC-MALS.
Assay [8] deals with Rac1BD-Rab35BD (MiniBAR70-553), recombinant (human) (UniProt O15063). As to the kind of experiment: SEC-MALS.
The target in assay [9] is Rab35BD (MiniBAR225-553), recombinant (human) (UniProt O15063). As to the kind of experiment: SAXS.
Assay [10] deals with 3xFLAG-Rab35Q67L (UniProt Q15286). The assay is described as follows: co-IP.

No constants are given. Whether binding was seen depends on the method and setting. For some of these results: Binding seen in cells or lysates may run through a third protein. Some binding calls cover weakened binding; strength is not graded here.

Regarding “GAD-MiniBAR Rab35BD (MiniBAR225-553) (from UniProt O15063 225-553) (domain or fragment)”, the binding entry in [1] was “binds”; in assay [2] it was “no binding”; in [3], “binds”.

With “GAD-MiniBAR full length (from UniProt O15063 1-1070)”, the figures for the binding entry in assay [1] and in assay [2] were “binds” and “no binding”, respectively. As to “GAD-MiniBAR full length A461R (from UniProt O15063 1-1070)”, the binding result in assay [1] was “no binding”.

For “His-tagged-Rab35-GPPNHP (from UniProt Q15286 1-201)”, the binding entry in [4] is reported as “binds”. As for “Rab35-GPPNHP, recombinant (from UniProt Q15286 1-201)”, the binding entry is listed as “no binding” in assay [5], “binds” in [6], “binds” in [7] and “binds” in assay [8]. For “Rab35BD (MiniBAR225-553), recombinant (from UniProt O15063 225-553) (domain or fragment)”, in assay [9], the binding result was “no binding”. “endogenous MiniBAR (from UniProt O15063 1-1070)”: the binding entry in assay [10] was “binds”.
